{
  "sequences": {"note": "Sequences of proteins named here, by UniProt entry; tags and fusion partners are left off.", "UniProt P46940": "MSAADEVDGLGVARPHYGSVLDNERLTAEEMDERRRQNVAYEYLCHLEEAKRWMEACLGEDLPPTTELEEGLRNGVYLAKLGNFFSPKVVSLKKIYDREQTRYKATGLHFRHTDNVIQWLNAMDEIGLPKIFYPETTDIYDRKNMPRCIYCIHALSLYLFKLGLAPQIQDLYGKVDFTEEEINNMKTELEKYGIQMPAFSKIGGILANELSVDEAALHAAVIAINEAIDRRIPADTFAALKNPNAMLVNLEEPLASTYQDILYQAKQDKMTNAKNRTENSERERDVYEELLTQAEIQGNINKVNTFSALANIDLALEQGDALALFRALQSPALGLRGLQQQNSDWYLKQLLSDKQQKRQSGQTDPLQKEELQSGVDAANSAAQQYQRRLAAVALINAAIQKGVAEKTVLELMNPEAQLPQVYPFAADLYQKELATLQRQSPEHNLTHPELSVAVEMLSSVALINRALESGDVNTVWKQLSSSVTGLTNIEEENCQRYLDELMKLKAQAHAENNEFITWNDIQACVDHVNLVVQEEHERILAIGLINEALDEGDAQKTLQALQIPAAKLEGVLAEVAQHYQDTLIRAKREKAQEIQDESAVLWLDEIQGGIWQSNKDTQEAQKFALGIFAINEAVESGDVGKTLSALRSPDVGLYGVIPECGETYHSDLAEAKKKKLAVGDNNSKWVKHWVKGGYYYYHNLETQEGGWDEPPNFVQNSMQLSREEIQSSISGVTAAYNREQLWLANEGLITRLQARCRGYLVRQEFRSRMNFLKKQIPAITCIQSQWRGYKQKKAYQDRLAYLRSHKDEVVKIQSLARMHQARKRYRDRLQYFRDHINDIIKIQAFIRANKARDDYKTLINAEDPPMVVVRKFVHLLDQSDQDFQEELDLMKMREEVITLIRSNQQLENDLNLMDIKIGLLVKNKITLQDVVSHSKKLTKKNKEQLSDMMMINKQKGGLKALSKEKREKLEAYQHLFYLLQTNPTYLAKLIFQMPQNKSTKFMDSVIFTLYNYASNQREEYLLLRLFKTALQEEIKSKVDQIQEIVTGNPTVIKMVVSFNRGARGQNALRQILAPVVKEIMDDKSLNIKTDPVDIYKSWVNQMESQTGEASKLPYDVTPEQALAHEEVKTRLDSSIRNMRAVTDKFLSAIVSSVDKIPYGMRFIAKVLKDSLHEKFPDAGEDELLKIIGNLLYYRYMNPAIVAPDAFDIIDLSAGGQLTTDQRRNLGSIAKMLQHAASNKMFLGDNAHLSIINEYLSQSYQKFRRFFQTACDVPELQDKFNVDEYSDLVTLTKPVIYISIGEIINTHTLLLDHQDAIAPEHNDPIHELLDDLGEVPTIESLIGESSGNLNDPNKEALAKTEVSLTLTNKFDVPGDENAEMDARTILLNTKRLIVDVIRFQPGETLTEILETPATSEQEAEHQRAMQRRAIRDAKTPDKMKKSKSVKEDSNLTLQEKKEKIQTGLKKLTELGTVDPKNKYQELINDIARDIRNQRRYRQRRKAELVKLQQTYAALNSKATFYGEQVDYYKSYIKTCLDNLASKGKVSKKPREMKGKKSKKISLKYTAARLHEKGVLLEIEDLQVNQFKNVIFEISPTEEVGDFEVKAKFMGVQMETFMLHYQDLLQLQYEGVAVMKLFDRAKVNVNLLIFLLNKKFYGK"},
  "source": "paper PMC7334785",
  "molecules": {"B1": {"name": "His-Borealin (protein, UniProt Q53HL2 1-280)", "chain": "MAPRKGSSRVAKTNSLRRRKLASFLKDFDREVEIRIKQIESDRQNLLKEVDNLYNIEILRLPKALREMNWLDYFALGGNKQALEEAATADLDITEINKLTAEAIQTPLKSAKTRKVIQVDEMIVEEEEEEENERKNLQTARVKRCPPSKKRTQSIQGKGKGKRSSRANTVTPAVGRLEVSMVKPTPGLTPRFDSRVFKTPGLRTPAAGERIYNISGNGSPLADSKEIFLTVPVGGGESLRLLASDLQRHSIAQLDPEALGNIKKLSNRLAQICSSIRTHK"}, "B2": {"name": "Borealin (protein, UniProt Q53HL2 1-280)", "chain": "B1 chain"}},
  "key": {"[1]": {"target": "T1, Borealin (human (endogenous in HeLa)) (UniProt Q53HL2)", "T1 sequence": "B1 chain", "assay": "co-IP; endogenous proteins of HeLa lysate (BC100 buffer) precipitated with anti-Borealin or anti-IQGAP1 antibody and protein A/G beads, 4°C; western blot"}, "GST-IQGAP1 (human)": {"target": "GST-IQGAP1 (human) (UniProt P46940)", "assay": "pull-down; GST-IQGAP or GST immobilised on Glutathione Sepharose 4B, incubated with recombinant His-Borealin 3 h at 4°C; 25 mM Tris-HCl pH 7.5, 10% glycerol, 0.1% NP-40, 150 mM NaCl, 1 mM EDTA, 1 mM DTT; Coomassie and western blot with anti-His; both purified"}, "[2]": {"target": "IQ domain-containing GTPase-activating protein 1 (human (endogenous in HeLa)) (UniProt P46940)", "assay": "co-IP; endogenous proteins of HeLa lysate (BC100 buffer) precipitated with anti-Borealin or anti-IQGAP1 antibody and protein A/G beads, 4°C; western blot"}},
  "note": "Results are given in words; binding and its absence hold for the method and conditions named. For part of these data: In cells and extracts the contact can be indirect. Some entries that bind do so weakly or less than the wild type. For part of these data: Tags and fused reporters may be left off the sequences shown.",
  "data": [
    {"molecule": "IQ domain-containing GTPase-activating protein 1 (from UniProt P46940 1-1657)", "values": [
      {"measurement": "binding", "setting": "[1]", "result": "binds"}
    ]},
    {"molecule": "B1", "values": [
      {"measurement": "binding", "setting": "GST-IQGAP1 (human)", "result": "binds"}
    ]},
    {"molecule": "B2", "values": [
      {"measurement": "binding", "setting": "[2]", "result": "binds"}
    ]}
  ]
}
